Test [1] concerns the target Flag-tagged FUS (Fused-in-sarcoma) (UniProt P35637). Description: co-IP + SEC.
Test [2] deals with FUS (Fused-in-sarcoma), endogenous (UniProt P35637). The test can be described thus: co-IP.

Amino acid sequences for entries named in this document (tags omitted).
UniProt P35637, whole entry: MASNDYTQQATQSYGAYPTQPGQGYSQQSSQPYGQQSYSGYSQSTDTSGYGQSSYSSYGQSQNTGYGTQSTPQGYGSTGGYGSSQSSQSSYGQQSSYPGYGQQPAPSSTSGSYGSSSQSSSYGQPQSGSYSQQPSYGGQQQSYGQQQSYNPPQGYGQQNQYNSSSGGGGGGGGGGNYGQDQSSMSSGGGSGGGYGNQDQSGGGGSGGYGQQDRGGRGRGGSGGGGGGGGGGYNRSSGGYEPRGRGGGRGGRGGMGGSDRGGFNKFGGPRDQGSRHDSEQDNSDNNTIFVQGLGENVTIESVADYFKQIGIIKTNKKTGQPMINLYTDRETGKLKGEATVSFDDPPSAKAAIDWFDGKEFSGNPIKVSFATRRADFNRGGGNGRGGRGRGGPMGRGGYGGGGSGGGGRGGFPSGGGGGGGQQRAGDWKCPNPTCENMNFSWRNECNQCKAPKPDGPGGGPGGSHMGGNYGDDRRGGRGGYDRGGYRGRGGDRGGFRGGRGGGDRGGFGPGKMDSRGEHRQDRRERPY
UniProt P22626, whole entry: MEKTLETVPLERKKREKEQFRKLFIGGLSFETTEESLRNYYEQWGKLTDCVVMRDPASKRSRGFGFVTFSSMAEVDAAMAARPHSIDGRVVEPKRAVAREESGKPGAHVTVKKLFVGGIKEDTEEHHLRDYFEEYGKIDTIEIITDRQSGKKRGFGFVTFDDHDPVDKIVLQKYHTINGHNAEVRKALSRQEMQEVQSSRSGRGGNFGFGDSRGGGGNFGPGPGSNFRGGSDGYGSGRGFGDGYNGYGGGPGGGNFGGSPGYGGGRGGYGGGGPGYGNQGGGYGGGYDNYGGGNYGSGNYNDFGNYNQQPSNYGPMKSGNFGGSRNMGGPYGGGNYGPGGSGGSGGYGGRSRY
UniProt P13010, whole entry: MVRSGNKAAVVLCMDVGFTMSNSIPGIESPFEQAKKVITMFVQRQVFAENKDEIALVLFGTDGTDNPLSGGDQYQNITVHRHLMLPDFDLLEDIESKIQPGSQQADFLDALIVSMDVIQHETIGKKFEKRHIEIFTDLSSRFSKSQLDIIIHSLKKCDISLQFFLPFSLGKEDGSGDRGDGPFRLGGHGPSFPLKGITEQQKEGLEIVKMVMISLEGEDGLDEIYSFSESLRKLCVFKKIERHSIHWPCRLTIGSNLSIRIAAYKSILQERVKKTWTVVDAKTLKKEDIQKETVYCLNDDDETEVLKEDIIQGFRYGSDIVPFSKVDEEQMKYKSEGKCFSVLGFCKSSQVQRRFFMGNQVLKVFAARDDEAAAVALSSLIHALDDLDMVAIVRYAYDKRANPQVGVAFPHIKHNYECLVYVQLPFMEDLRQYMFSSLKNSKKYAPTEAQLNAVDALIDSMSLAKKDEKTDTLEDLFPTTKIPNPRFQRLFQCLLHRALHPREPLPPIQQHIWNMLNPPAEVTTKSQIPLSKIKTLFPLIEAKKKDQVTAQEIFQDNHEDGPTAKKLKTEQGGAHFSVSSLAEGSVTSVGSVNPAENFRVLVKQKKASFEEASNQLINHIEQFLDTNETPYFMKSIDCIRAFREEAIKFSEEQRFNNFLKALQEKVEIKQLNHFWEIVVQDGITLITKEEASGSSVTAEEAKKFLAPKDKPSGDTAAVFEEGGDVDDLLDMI
UniProt Q12905, whole entry: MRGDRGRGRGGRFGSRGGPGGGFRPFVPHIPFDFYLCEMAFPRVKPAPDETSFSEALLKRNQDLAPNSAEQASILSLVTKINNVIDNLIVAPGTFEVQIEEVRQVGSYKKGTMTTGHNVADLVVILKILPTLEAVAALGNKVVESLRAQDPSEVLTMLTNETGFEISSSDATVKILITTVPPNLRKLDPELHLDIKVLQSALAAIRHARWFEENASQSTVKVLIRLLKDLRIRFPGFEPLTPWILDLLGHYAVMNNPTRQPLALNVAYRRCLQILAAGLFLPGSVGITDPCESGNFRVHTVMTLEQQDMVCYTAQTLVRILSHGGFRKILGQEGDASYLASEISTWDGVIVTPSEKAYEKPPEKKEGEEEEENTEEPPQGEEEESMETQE

No constants are given. Whether binding was seen depends on the method and setting. In cells and extracts the contact can be indirect. Some results given as binding are weak or reduced against the parent protein; the word gives no strength.

As for “hnRNP B1 (large isoform of hnRNP A2/B1, 37.4 kDa) (from UniProt P22626-1 1-353)”, the binding entry in test [1] is “binds”.

In the case of XRCC5/KU80 (from UniProt P13010 1-732), in test [1], the binding result is recorded as “binds”.

Turning to ILF2 (from UniProt Q12905 1-390), the binding entry in test [1] is “binds”.

As for “hnRNP A2 (smaller isoform of hnRNP A2/B1, 36 kDa) (from UniProt P22626-2 1-341)”, the binding result in test [2] and in test [1] was “binds” throughout.

B1: SFPQ/NONO heterodimer (complex, UniProt P23246 1-707; Q15233 1-471)
chain 1: MSRDRFRSRGGGGGGFHRRGGGGGRGGLHDFRSPPPGMGLNQNRGPMGPGPGQSGPKPPIPPPPPHQQQQQPPPQQPPPQQPPPHQPPPHPQPHQQQQPPPPPQDSSKPVVAQGPGPAPGVGSAPPASSSAPPATPPTSGAPPGSGPGPTPTPPPAVTSAPPGAPPPTPPSSGVPTTPPQAGGPPPPPAAVPGPGPGPKQGPGPGGPKGGKMPGGPKPGGGPGLSTPGGHPKPPHRGGGEPRGGRQHHPPYHQQHHQGPPPGGPGGRSEEKISDSEGFKANLSLLRRPGEKTYTQRCRLFVGNLPADITEDEFKRLFAKYGEPGEVFINKGKGFGFIKLESRALAEIAKAELDDTPMRGRQLRVRFATHAAALSVRNLSPYVSNELLEEAFSQFGPIERAVVIVDDRGRSTGKGIVEFASKPAARKAFERCSEGVFLLTTTPRPVIVEPLEQLDDEDGLPEKLAQKNPMYQKERETPPRFAQHGTFEYEYSQRWKSLDEMEKQQREQVEKNMKDAKDKLESEMEDAYHEHQANLLRQDLMRRQEELRRMEELHNQEMQKRKEMQLRQEEERRRREEEMMIRQREMEEQMRRQREESYSRMGYMDPRERDMRMGGGGAMNMGDPYGSGGQKFPPLGGGGGIGYEANPGVPPATMSGSMMGSDMRTERFGQGGAGPVGGQGPRGMGPGTPAGYGRGREEYEGPNKKPRF
chain 2: MQSNKTFNLEKQNHTPRKHHQHHHQQQHHQQQQQQPPPPPIPANGQQASSQNEGLTIDLKNFRKPGEKTFTQRSRLFVGNLPPDITEEEMRKLFEKYGKAGEVFIHKDKGFGFIRLETRTLAEIAKVELDNMPLRGKQLRVRFACHSASLTVRNLPQYVSNELLEEAFSVFGQVERAVVIVDDRGRPSGKGIVEFSGKPAARKALDRCSEGSFLLTTFPRPVTVEPMDQLDDEEGLPEKLVIKNQQFHKEREQPPRFAQPGSFEYEYAMRWKALIEMEKQQQDQVDRNIKEAREKLEMEMEAARHEHQVMLMRQDLMRRQEELRRMEELHNQEVQKRKQLELRQEEERRRREEEMRRQQEEMMRRQQEGFKGTFPDAREQEIRMGQMAMGGAMGINNRGAMPPAPVPAGTPAPPGPATMMPDGTLGLTPPTTERFGQAATMEGIGAIGGTPPAFNRAAPGAEFAPNKRRRY
Consider B1, for which the binding entry in test [1] is on record as “binds”.

B2: MATR3 (protein, UniProt P43243 1-847)
chain: MSKSFQQSSLSRDSQGHGRDLSAAGIGLLAAATQSLSMPASLGRMNQGTARLASLMNLGMSSSLNQQGAHSALSSASTSSHNLQSIFNIGSRGPLPLSSQHRGDADQASNILASFGLSARDLDELSRYPEDKITPENLPQILLQLKRRRTEEGPTLSYGRDGRSATREPPYRVPRDDWEEKRHFRRDSFDDRGPSLNPVLDYDHGSRSQESGYYDRMDYEDDRLRDGERCRDDSFFGETSHNYHKFDSEYERMGRGPGPLQERSLFEKKRGAPPSSNIEDFHGLLPKGYPHLCSICDLPVHSNKEWSQHINGASHSRRCQLLLEIYPEWNPDNDTGHTMGDPFMLQQSTNPAPGILGPPPPSFHLGGPAVGPRGNLGAGNGNLQGPRHMQKGRVETSRVVHIMDFQRGKNLRYQLLQLVEPFGVISNHLILNKINEAFIEMATTEDAQAAVDYYTTTPALVFGKPVRVHLSQKYKRIKKPEGKPDQKFDQKQELGRVIHLSNLPHSGYSDSAVLKLAEPYGKIKNYILMRMKSQAFIEMETREDAMAMVDHCLKKALWFQGRCVKVDLSEKYKKLVLRIPNRGIDLLKKDKSRKRSYSPDGKESPSDKKSKTDGSQKTESSTEGKEQEEKSGEDGEKDTKDDQTEQEPNMLLESEDELLVDEEEAAALLESGSSVGDETDLANLGDVASDGKKEPSDKAVKKDGSASAAAKKKLKKVDKIEELDQENEAALENGIKNEENTEPGAESSENADDPNKDTSENADGQSDENKDDYTIPDEYRIGPYQPNVPVGIDYVIPKTGFYCKLCSLFYTNEEVAKNTHCSSLPHYQKLKKFLNKLAEERRQKKET
B2: the binding result in test [1] is reported as “binds”.

For the origin of these results see article doi:10.1101/798884.
